## Primary screen of a compound library

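Viability assay of Plasmodium falciparum sporozoites; the read-out is not stated. The concentration is filed as 10 mM, unlikely as a test dose, so the dose is not known. Direction is inferred from retests: higher values go with lower viability. Strong results were mostly tested again. Of about 34,000 compounds tested this way, about 280 (0.84%) reached 50% or more in at least one test.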

The filed quantity is “Percent Effect” (%).
The record does not define 0% and 100%; most values in the screen are far below 50% and negative numbers occur (in some assays of this library far below -100).
Compounds were drawn at random from those tested, without regard to their results.
Two or more numbers in one place are separate tests of the same structure; such repeats can differ widely.

{"compound": "O=C(O)C(F)(F)F.O=C(O)C(F)(F)F.O=C(c1cccnc1)N1CCn2nnc(COc3cccnc3)c2C1", "percent effect": -0.3356}
{"compound": "Cc1nc(C)n(C2CCCN(C(=O)c3ccc(F)cc3F)C2)n1", "stereo": "stereo not drawn", "percent effect": -13.08}
{"compound": "COCCNC(=O)c1sc2ccccc2c1C1CCC(CN)CC1.Cl", "stereo": "stereo not drawn", "percent effect": -6.905}
{"compound": "C[C@H]1CN(Cc2cnn(C)c2)C[C@@]12CCN(Cc1cccnc1)C2=O", "percent effect": 11.69}
{"compound": "COc1ccc(C(=O)N2CCCC2c2ccco2)cc1OC", "stereo": "stereo not drawn", "percent effect": -13.74}
{"compound": "[H][C@@]12CCN(S(=O)(=O)c3cccs3)[C@]1([H])CCC(=O)N2CC", "percent effect": -4.106}
{"compound": "Cc1cccnc1NC(=O)N(CCO)Cc1ccsc1", "percent effect": 9.302}
{"compound": "Cc1ncc2c(n1)CN(CCCc1nc3ccccc3o1)CC2", "percent effect": -16.18}
{"compound": "CC(C)c1n[nH]c(C(=O)Nc2cc[nH]n2)c1Br", "percent effect": "92.68 and 24.65 and 50.07"}
{"compound": "Cc1cc(F)ccc1NS(=O)(=O)c1cc2c(c(C(=O)O)c1)OCCO2", "percent effect": 1.899}
{"compound": "CC(Cn1ccnc1)NC(=O)N1CCN(Cc2cccs2)CC1", "stereo": "stereo not drawn", "percent effect": 2.012}
{"compound": "O=S(=O)(c1cccnc1)N1CCN(CCn2ccnc2)CC1", "percent effect": -16.65}
{"compound": "Cc1c(CN2CCCC2c2cncc(CN3CCCC3)n2)cnn1C", "stereo": "stereo not drawn", "percent effect": 11.16}
{"compound": "COCCN1CC(C(=O)NCc2ccc(C)s2)CC1=O", "stereo": "stereo not drawn", "percent effect": -7.214}
{"compound": "c1ccc(CCN2CCN(C3CCOC4(CCOCC4)C3)CC2)nc1", "stereo": "stereo not drawn", "percent effect": -1.97}
{"compound": "COc1ccccc1OCCNC1CCCN(Cc2noc(C)n2)C1", "stereo": "stereo not drawn", "percent effect": 1.019}
{"compound": "CN(C(=O)COc1ccc(F)cc1)[C@@H]1CC[C@@H](n2ccnc2)[C@@H]1O", "percent effect": 1.932}
{"compound": "NC(=O)COCCNC(=O)Nc1sc2ccccc2c1Cl", "percent effect": "-40.29 and -35.86 and -2.331"}
{"compound": "COc1ccc(CNC(=O)N2CCN(CC(O)C3CC3)CC2)cc1.Cl", "stereo": "stereo not drawn", "percent effect": "-15.51 and -0.6569 and 30.89"}
{"compound": "O=C(O)C(F)(F)F.[H][C@@]12CCN(CCc3ccccc3)C[C@@]1([H])[C@H](C(=O)NCC1CC1)CCO2", "percent effect": -12.44}
{"compound": "Cc1nc(CN(C)C2CCCN(c3cccnn3)C2)oc1C", "stereo": "stereo not drawn", "percent effect": 16.88}
{"compound": "CC(=O)Nc1ncc(S(=O)(=O)Nc2cccc(C)c2)s1", "percent effect": "-25.8 and -18.95"}
{"compound": "COc1ccc(-c2cnc3c(c2)CN(C2CC2)C(=O)CCN3)cc1", "percent effect": -37.33}
{"compound": "[H][C@@]12CN(C(=O)C3CCOCC3)C[C@@]1([H])N(CC(C)C)C(=O)CO2", "percent effect": "-6.182 and -14.65 and 0"}
{"compound": "Cc1nccc(N2CCN(C3CCOCC3)CC(C(=O)N(C)C)C2)n1", "stereo": "stereo not drawn", "percent effect": 4.472}
{"compound": "[H][C@]12CCC[C@@]1(COCC1CCOCC1)CN(C(=O)c1ccc(C)o1)C2", "percent effect": -3.448}
{"compound": "OC1CN(Cc2ccccc2)CCN(c2ccncc2)C1", "stereo": "stereo not drawn", "percent effect": 16.21}
{"compound": "O=C(O)C(F)(F)F.O=C(c1cnccn1)N1CCc2ncnc(-c3cccnc3)c2CC1", "percent effect": -17.21}
{"compound": "[H][C@@]12C[C@@H](Oc3cccnc3)CN1CCN(C(=O)c1cccn1C)C2", "percent effect": -11.51}
{"compound": "O=C(CCn1cncn1)NC1(c2cccc(Br)c2)CCC1", "percent effect": -14.18}
{"compound": "Cc1nc(N2CCOCC2)nc2c1CCN(C(=O)NC1CCCC1)CC2", "percent effect": 2.632}
{"compound": "O=C(CN1CCCCC1Cn1cccn1)NC1CCN(C2CC2)CC1", "stereo": "stereo not drawn", "percent effect": 12.12}
{"compound": "Cc1noc(C)c1CN1CCOCC12CCN(c1nccs1)CC2.O=C(O)C(F)(F)F", "percent effect": -0.7005}
{"compound": "[H][C@]12CC[C@@]3(N=C(C)N(CC(C)C)C3=O)[C@@]1([H])CN(S(=O)(=O)CC)C2", "percent effect": 10.27}
{"compound": "O=C(c1ccc(OCC2CC2)nc1)N1CCCC(n2cccn2)C1", "stereo": "stereo not drawn", "percent effect": -19.18}
{"compound": "COc1cccc(CNCc2nnc3n2CC(C(F)(F)F)CC3)c1", "stereo": "stereo not drawn", "percent effect": 12.46}
{"compound": "COc1cccc2cc(CNC(=O)N3CCOC(C)(C)C3)oc12", "percent effect": 10.09}
{"compound": "Cc1cc(N(C)C)nc(C2(C)CCNCC2)n1", "percent effect": 10.68}
{"compound": "CC(C)c1nc(N2CC(N3CCCCC3C)C2)c2cnn(C)c2n1", "stereo": "stereo not drawn", "percent effect": 2.152}
{"compound": "CC(Cc1ccco1)NC(=O)Nc1ccc(N2CCOCC2)nc1", "stereo": "stereo not drawn", "percent effect": 2.143}

3 of the entries, repeated:

Compound	percent effect
CN(C(=O)COc1ccc(F)cc1)[C@@H]1CC[C@@H](n2ccnc2)[C@@H]1O	1.932
O=C(CCn1cncn1)NC1(c2cccc(Br)c2)CCC1	-14.18
Cc1c(CN2CCCC2c2cncc(CN3CCCC3)n2)cnn1C (stereo not drawn)	11.16

Source: ChEMBL document CHEMBL3988442, “University of Dundee, Small-Polar-MMV Screening Library” (2021).